Reference: paper PMC8016481, “Tachykinin signaling inhibits task-specific behavioral responsiveness in honeybee workers” (eLife, 2021)

Assays:
[1] = Label-free quantitative brain neuropeptidomics, Apis cerana cerana (LC-MS/MS); settings: ACC
[2] = Label-free quantitative brain neuropeptidomics, comparison between Apis cerana cerana and Apis mellifera ligustica
[3] = NFs relative to base group PFs (= 1.00)
[4] = nurse bees, AML-NBs relative to base group ACC-NBs (= 1.00)
[5] = NFs relative to base group NBs (= 1.00)
[6] = PFs relative to base group NBs (= 1.00)
[7] = nectar foragers, AML-NFs relative to base group ACC-NFs (= 1.00)
[8] = pollen foragers, AML-PFs relative to base group ACC-PFs (= 1.00)

| Substance | Group Profile (Ratio) [1, 3] | Group Profile (Ratio) [1, 5] | Group Profile (Ratio) [1, 6] | other results |
| --- | --- | --- | --- | --- |
| pQLHNIIDKPRQNFNDPRF | 1.00 : 0.25 | – | – | – |
| DLSRFYGHF | – | – | – | Group Profile (Ratio) [2, 4]: 1.00 : 0.23 |
| YVASLARTGDLPIRGQ | 1.00 : 0.5 | – | – | – |
| SQRSPSLRLRFa | 1.00 : 0.27 | – | – | – |
| APVGYQEMQGKKNSASLNSENFGIF | – | 1.00 :4.14 | 1.00 : 4.07 | – |
| pQITQFTPRLa | 1.00 : 0.27 | – | 1.00 : 5.9 | Group Profile (Ratio) [2, 7]: 1.00 : 1.92 |
| LTNYLATGHRTNGGPVI | – | 1.00 :5.13 | – | – |
| APMGFYGTRG | – | 1.00 :6.48 | 1.00 : 4.96 | – |
| pQQFDDYGHLRFa | – | – | – | Group Profile (Ratio) [2, 8]: 1.00 : 0.65 |
| GRNDLNFIRYa | – | – | – | Group Profile (Ratio) [2, 8]: 1.00 : 0.31 |
| pQMFTYSHGWTNa | – | 1.00 :4.77 | 1.00 : 3.87 | – |
| RVPWTPSPRLa | – | – | – | Group Profile (Ratio) [2, 8]: 1.00 : 3.43 |
| AYTYVSEYKRLPVYNFGIa | – | – | – | Group Profile (Ratio) [2, 4]: 1.00 : 0.34 |
| ALMGFQGVRG | 1.00 : 3.14 | 1.00 :5.86 | 1.00 : 1.87 | Group Profile (Ratio) [2, 4]: 1.00 : 0.43 |
| ITGQGNRIF | – | – | 1.00 : 2.89 | – |
| NVGTLARDFALPPa | – | – | 1.00 : 2.62 | – |
| APMGFQGMRa | 1.00 : 2.18 | 1.00 :10.86 | 1.00 : 5.01 | Group Profile (Ratio) [2, 7]: 1.00 : 0.34; Group Profile (Ratio) [2, 4]: 1.00 : 0.4; Group Profile (Ratio) [2, 8]: 1.00 : 0.29 |
| SPSLRLRFa | 1.00 : 0.38 | 1.00 :0.15 | – | Group Profile (Ratio) [2, 7]: 1.00 : 2.08 |
| ALMGFQGVRa | 1.00 : 2.54 | 1.00 : 11.76 | 1.00 : 4.64 | Group Profile (Ratio) [2, 7]: 1.00 : 0.37; Group Profile (Ratio) [2, 4]: 1.00 : 0.43; Group Profile (Ratio) [2, 8]: 1.00 : 0.36 |
| AVHYSGGQPLGSKRPNDMLSQRYHFGLa | 1.00 : 0.64 | – | – | – |
| SQAYDPYSNAAQFQLSSQSRGYPYQHRL | – | – | – | Group Profile (Ratio) [2, 4]: 1.00 : 2.75 |
| GMWFGPRLa | – | – | – | Group Profile (Ratio) [2, 4]: 1.00 : 2.08; Group Profile (Ratio) [2, 8]: 1.00 : 2.32 |
| NVPIYQEPRF | – | 1.00 :0.32 | 1.00 : 0.39 | – |
| APMGFQGMRG | 1.00 : 1.87 | 1.00 :8.68 | 1.00 : 4.64 | Group Profile (Ratio) [2, 4]: 1.00 : 0.36 |
| SLKAPFA | – | 1.00 :2.96 | 1.00 : 2.48 | – |
| LRNQLDIGDLQ | – | – | – | Group Profile (Ratio) [2, 8]: 1.00 : 2.16 |
| ASFDDEYY | – | 1.00 :6.95 | 1.00 : 5.33 | Group Profile (Ratio) [2, 8]: 1.00 : 0.14 |
| KPPFNGSIFa | – | 1.00 :0.36 | 1.00 : 0.48 | Group Profile (Ratio) [2, 4]: 1.00 : 2.12 |

| Substance | Group Profile (Ratio) [1, 3] | Group Profile (Ratio) [1, 5] | Group Profile (Ratio) [1, 6] | other results |
| --- | --- | --- | --- | --- |
| SVSSLAKNSAWPVSL | – | – | – | Group Profile (Ratio) [2, 7]: 1.00 : 1.84 |
| SDPHLSIGILSKPISAIPSSKFDD | – | – | 1.00 : 0.4 | – |
| MVPVPVHHMADELLRSGPDTVI | 1.00 : 1.87 | – | – | – |
| IDLSRFYGHFN | 1.00 : 2.1 | – | – | – |
| AYRKPPFNGSIFa | – | 1.00 :0.19 | 1.00 : 0.29 | – |
| YVASLARTGDLPIRa | – | 1.00 :4.91 | – | Group Profile (Ratio) [2, 8]: 1.00 : 1.96 |
| LVDHRIPDLENEMFDSGNDPGSTVVRT | – | – | – | Group Profile (Ratio) [2, 7]: 1.00 : 3.25 |
| pQLHNIIDKPRQNFNDP | 1.00 : 0.34 | – | – | – |
| NVGSVAREHGLPYa | – | 1.00 :4.13 | 1.00 : 3.59 | Group Profile (Ratio) [2, 8]: 1.00 : 2.87 |
| NLDEIDRVGWSGFV | – | 1.00 :3.91 | 1.00 : 2.81 | – |
| NIASLIRDYDQSRENRVSFPa | 1.00 : 2.05 | – | – | – |
| NVASLARTYTLPQNAa | – | – | – | Group Profile (Ratio) [2, 7]: 1.00 : 1.71 |
| IDLSRFYGHFNT | 1.00 : 2.04 | 1.00 :6.65 | 1.00 : 3.26 | Group Profile (Ratio) [2, 7]: 1.00 : 0.55 |
| WIDTNDNKRGRDYSFGLa | 1.00 : 0.6 | – | – | – |
| ARMGFHGMRG | – | 1.00 :3.98 | 1.00 : 3.06 | – |
| SPFRYLGV | – | – | 1.00 : 2.74 | – |
| LPTNLGEDTKKTEQTMRPKS | – | – | 1.00 : 0.29 | – |
| YRKPPFNGSIFa | – | – | – | Group Profile (Ratio) [2, 4]: 1.00 : 2.65 |
| GLDLGLSRGFSGSQAAKHLMa | – | 1.00 :5.45 | 1.00 : 4.18 | Group Profile (Ratio) [2, 4]: 1.00 : 1.82 |
| TWKSPDIVIRFa | 1.00 : 1.9 | – | – | – |
| SISSLARTGDLPVREQ | 1.00 : 0.11 | 1.00 :2.92 | 1.00 : 3.96 | – |
| TSQDITSGMWFGPRLa | – | 1.00 :2.84 | – | Group Profile (Ratio) [2, 7]: 1.00 : 4.16 |
| VPIYQEPRF | – | 1.00 :0.34 | 1.00 : 0.23 | – |
| pQDVDHVFLRFa | – | – | – | Group Profile (Ratio) [2, 4]: 1.00 : 1.91 |
| IDLSRFYGHF | – | – | – | Group Profile (Ratio) [2, 4]: 1.00 : 3.59; Group Profile (Ratio) [2, 8]: 1.00 : 1.6 |
| NSELINSLLGLPKNMNNAa | – | 1.00 :4.04 | 1.00 : 3.43 | Group Profile (Ratio) [2, 7]: 1.00 : 0.18 |
| GLDLGLSRGFSGSQAA | – | – | – | Group Profile (Ratio) [2, 4]: 1.00 : 2.84 |
